# Measured values as given in the supplement of paper PMC8728848.
# This is one part of the list.
# B1: SJCP1084 (Schistosoma japonicum) (protein)
# chain: MRIINLVIISTALLLINLLQTKSQANGEDTKNGTPDDPGLTKSTELKVEVQALLKDKKTNMRVKWNENLLDNTKPEYHNLRDEACELLLQIVRSVVPLSQDDGECKDVTFTKYVVGTKDGAVNVKLTITFKDSVAINQKPMDLKLKLENDFKNLQSESTLKATKPTFTVKVEKRLIPISKPQTTPPTTAKNDASKENVGDIGGEDSTVPTAAPATAASANEEKDEGDKDNKDSQHPNVLTSNVNDRNLIIALVALMILAIGVALTAAVKQR
# Legend:
# Experiment in all cases: glycan array binding signal (z-score within array); higher = stronger binding
# Settings in all cases: glycan notation: IUPAC condensed, linker removed
# [1] = target: Gal(b1-4)GlcNAc(b1-6)GalNAc
# Outline: (§1)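 Glycan array data were curated from 3228 arrays in the Consortium for Functional Glycomics database and kept only where the protein sequence was available. Glycan names were converted to IUPAC-condensed notation, and columns mapping to the same glycan were averaged. The binding signal is a within-array Z-score, averaged across arrays of the same protein sequence at different concentrations or buffers and across linkers. Negative Z-scores can be read as non-binding.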
# [2] = target: Gal(b1-4)GlcNAc(b1-6)[Gal(b1-3)]GalNAc
# Outline: as §1
# [3] = target: Gal(b1-4)GlcNAc(b1-6)[Gal(b1-4)GlcNAc(b1-3)]GalNAc
# Outline: as §1
# [4] = target: Gal(b1-4)GlcNAc6P
# Outline: as §1
# [5] = target: Gal(b1-6)Gal
# Outline: as §1
# [6] = target: Gal3S(b1-3)GalNAc
# Outline: as §1
# [7] = target: Gal3S(b1-3)GlcNAc
# Outline: as §1
# [8] = target: Gal3S(b1-3)[Fuc(a1-4)]GlcNAc
# Outline: as §1
# [9] = target: Gal3S(b1-4)Glc
# Outline: as §1
# [10] = target: Gal3S(b1-4)Glc6S
# Outline: as §1
# [11] = target: Gal3S(b1-4)GlcNAc
# Outline: as §1
# [12] = target: Gal3S(b1-4)[Fuc(a1-3)]Glc6S
# Outline: as §1
# [13] = target: Gal3S(b1-4)[Fuc(a1-3)]GlcNAc
# Outline: as §1
# [14] = target: Gal3S(b1-4)[Fuc(a1-3)]GlcNAc6S
# Outline: as §1
# [15] = target: Gal3S4S(b1-4)GlcNAc
# Outline: as §1
# [16] = target: Gal3S6S(b1-4)GlcNAc
# Outline: as §1
# [17] = target: Gal3S6S(b1-4)GlcNAc6S
# Outline: as §1
# [18] = target: Gal4S(b1-4)GlcNAc
# Outline: as §1
# [19] = target: Gal4S6S(b1-4)GlcNAc
# Outline: as §1
# [20] = target: Gal6P(b1-4)GlcNAc
# Outline: as §1
# [21] = target: Gal6S(b1-3)GlcNAc
# Outline: as §1
# [22] = target: Gal6S(b1-3)GlcNAc6S
# Outline: as §1
# [23] = target: Gal6S(b1-4)Glc
# Outline: as §1
# [24] = target: Gal6S(b1-4)Glc6S
# Outline: as §1
# [25] = target: Gal6S(b1-4)GlcNAc
# Outline: as §1
# [26] = target: Gal6S(b1-4)GlcNAc6S
# Outline: as §1
# [27] = target: GalNAc(a1-3)Gal
# Outline: as §1
# [28] = target: GalNAc(a1-3)GalNAc
# Outline: as §1
# [29] = target: GalNAc(a1-3)GalNAc(b1-3)Gal(a1-4)Gal(b1-4)Glc
# Outline: as §1
# [30] = target: GalNAc(a1-3)GalNAc(b1-3)Gal(a1-4)Gal(b1-4)GlcNAc
# Outline: as §1
# [31] = target: GalNAc(b1-3)Gal
# Outline: as §1
# [32] = target: GalNAc(b1-3)Gal(a1-4)Gal(b1-4)GlcNAc
# Outline: as §1
# [33] = target: GalNAc(b1-3)Gal(a1-4)Gal(b1-4)GlcNAc(b1-3)Gal(b1-4)Glc
# Outline: as §1
# [34] = target: GalNAc(b1-3)Gal(a1-6)Gal(b1-4)Glc
# Outline: as §1
# [35] = target: GalNAc(b1-3)GalNAc
# Outline: as §1
# [36] = target: GalNAc(b1-3)GlcNAc
# Outline: as §1
# [37] = target: GalNAc(b1-4)Gal(b1-4)Glc
# Outline: as §1
# [38] = target: GalNAc(b1-4)GlcNAc
# Outline: as §1
binder,measurement,setting,value
B1,glycan array binding signal (z-score),[1],1.48
same,glycan array binding signal (z-score),[2],0.73
same,glycan array binding signal (z-score),[3],-0.704
same,glycan array binding signal (z-score),[4],-0.571
same,glycan array binding signal (z-score),[5],-1.05
same,glycan array binding signal (z-score),[6],0.411
same,glycan array binding signal (z-score),[7],-0.3
same,glycan array binding signal (z-score),[8],-0.442
same,glycan array binding signal (z-score),[9],1.79
same,glycan array binding signal (z-score),[10],-0.27
same,glycan array binding signal (z-score),[11],-0.79
same,glycan array binding signal (z-score),[12],1.26
same,glycan array binding signal (z-score),[13],0.218
same,glycan array binding signal (z-score),[14],0.322
same,glycan array binding signal (z-score),[15],-0.786
same,glycan array binding signal (z-score),[16],0.244
same,glycan array binding signal (z-score),[17],0.049
same,glycan array binding signal (z-score),[18],1.12
same,glycan array binding signal (z-score),[19],-0.509
same,glycan array binding signal (z-score),[20],-0.319
same,glycan array binding signal (z-score),[21],0.36
same,glycan array binding signal (z-score),[22],1.63
same,glycan array binding signal (z-score),[23],-0.09
same,glycan array binding signal (z-score),[24],0.296
same,glycan array binding signal (z-score),[25],0.199
same,glycan array binding signal (z-score),[26],-0.044
same,glycan array binding signal (z-score),[27],-1.11
same,glycan array binding signal (z-score),[28],0.379
same,glycan array binding signal (z-score),[29],-1.12
same,glycan array binding signal (z-score),[30],-0.298
same,glycan array binding signal (z-score),[31],-0.955
same,glycan array binding signal (z-score),[32],0.632
same,glycan array binding signal (z-score),[33],-0.671
same,glycan array binding signal (z-score),[34],-0.545
same,glycan array binding signal (z-score),[35],-0.527
same,glycan array binding signal (z-score),[36],-0.694
same,glycan array binding signal (z-score),[37],0.083
same,glycan array binding signal (z-score),[38],1.94

# A stretch from further up:
binder,measurement,setting,value
B1,glycan array binding signal (z-score),[19],-0.509
same,glycan array binding signal (z-score),[20],-0.319
same,glycan array binding signal (z-score),[21],0.36
